Our source for the binding values is article PMC12205802.

For test [1], the target named is T1, Interferon regulatory factor 1 (IRF1), FLAG-tagged, wild type (UniProt P10914).
T1 sequence: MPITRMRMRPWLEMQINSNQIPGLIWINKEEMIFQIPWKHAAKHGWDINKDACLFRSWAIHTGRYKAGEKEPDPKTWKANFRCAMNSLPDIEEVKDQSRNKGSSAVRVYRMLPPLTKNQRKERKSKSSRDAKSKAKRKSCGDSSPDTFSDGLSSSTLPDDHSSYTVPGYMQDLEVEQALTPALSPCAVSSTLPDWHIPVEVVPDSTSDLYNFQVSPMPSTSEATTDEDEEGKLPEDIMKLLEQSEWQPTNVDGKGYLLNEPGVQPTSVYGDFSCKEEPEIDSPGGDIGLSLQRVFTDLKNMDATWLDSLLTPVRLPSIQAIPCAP
Nature of the test: co-IP; HEK293T cells transfected, collected 24 h post-transfection; NP-40 lysis buffer (150 mM NaCl, 50 mM Tris-HCl pH 7.4, 1% NP-40, 1 mM EDTA); anti-FLAG beads, 4 °C, 4 h; immunoblotting. On the technique in general: A western blot detects proteins with antibodies after separation by electrophoresis.

Test [2] deals with T2, IRF1-R82A, FLAG-tagged (DNA-binding deficient mutant) (UniProt P10914).
T2 sequence: T1 sequence with R82A
The test is described as above.

Test [3] has as its target T3, endogenous IRF3 (human (endogenous in HT1080)) (UniProt Q14653).
T3 sequence: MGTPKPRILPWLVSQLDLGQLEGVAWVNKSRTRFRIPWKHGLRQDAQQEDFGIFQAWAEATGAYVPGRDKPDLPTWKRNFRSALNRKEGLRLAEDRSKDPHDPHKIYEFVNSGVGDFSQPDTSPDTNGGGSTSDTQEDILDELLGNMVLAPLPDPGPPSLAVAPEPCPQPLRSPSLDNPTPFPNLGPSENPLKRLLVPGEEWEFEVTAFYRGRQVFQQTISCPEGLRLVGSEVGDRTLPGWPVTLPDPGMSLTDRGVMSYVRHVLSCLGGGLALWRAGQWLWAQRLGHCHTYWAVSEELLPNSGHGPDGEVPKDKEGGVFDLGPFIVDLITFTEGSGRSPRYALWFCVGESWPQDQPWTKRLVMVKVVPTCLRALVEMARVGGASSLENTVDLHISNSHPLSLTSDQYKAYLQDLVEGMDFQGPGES
Nature of the test: co-IP; endogenous proteins; HT1080 cells infected with HSV-1, harvested 8 h post-infection; lysates incubated overnight with rabbit IgG or rabbit anti-IRF3 polyclonal antibody, then Protein A/G agarose, 4 °C, 4 h; immunoblotting.

Substitutions are numbered along the chain they refer to. Results are given in words; binding and its absence hold for the method and conditions named. In cells and extracts the contact can be indirect. Some binding calls cover weakened binding; strength is not graded here. For part of these data: Sequences can lack the tags named with a protein.

B1: IRF3, HA-tagged (protein, UniProt Q14653 1-427)
chain: T3 sequence
As for B1, the binding entry in test [1] and in test [2] was “binds” each time.

B2: endogenous IRF1 (protein, UniProt P10914 1-325)
chain: T1 sequence
B2: in test [3], the binding entry is given as “binds”.
